Test results as given in US20250361295A1.

B1: 44-F10-B6-D4 (antibody, V domains shown)
VH: EVHLVESGGGLVKPGGSLKLSCAASGFTFSSYAMSWVRQTPEKRLEWVATISSGGSYIYYPDSVKGRFTISRDNAKNTLYLQMSSLRSEDTAMYYCARQDWDGGDYYAMDYWGQGTSVTVSS
VL: DIVMTQSPSSLAVSAGEKVTMSCKSSQSVLYSSNQKNFLAWYQQKPGQSPKLLIYWASTRESGVPDRFTGSGSGTDFTLTISSVQAEDLAVYYCHQYLSSLTFGAGTKLELK
B2: ch44-F10-B6-D4 (antibody, V domains shown)
VH: B1 VH
VL: B1 VL
B3: 7-B4-C1-C9 (antibody, V domains shown)
VH: EVQLQQSGTELVKPGASVKLSCKASGYTFTNYWMHWVKQRPGQGLEWIGEINPSNGRTNYNEKFKTKATLTVDKSSSTAYMQLSSLTSEDSAVYYCARSTYYGYDWYFDVWGAGTTVTVSS
VL: DIVLTQSPSSMYASLGERVTITCKASQDINSYLSWFQQKPGKSPKTLIYRANRLLDGVPSRFSGGGSGQDYSLTISSLEHEDMGIYYCLQCDEFPHTFGGGTKLEIK
B4: 36-F4-H1-D9 (antibody, V domains shown)
VH: EVKLLESGGGLVQPGGSLKLSCAASGFDFSRYWMIWVRQAPEKGLEWIGEINPDSSTINYTPSLKDKFIISRDNAKNTLYLQMSKVRSEDTALYYCARPYYRYDVGYFDVWGAGTTVTVSS
VL: DIVMTQAPKVLLVSAGDRVTISCKASQSVSNAVVWYQQKPGQSPKLLIFYASNRYTGVPDRFTGSGYGTDFTFSISTVQAEDLAVYFCQQDYSSPWTFGGGTKLEIK
B5: 10-H9-E3-G3 (antibody, V domains shown)
VH: EVQRVESGGGLVQPGGSRKLSCAASGFTFSSFGMHWVRQAPEKGLEWVAYISSGSSAMYYADTVKGRFTISRDNPKNTLFLQMTSLRSEDTAMYYCARSDGKGAMDYWGQGTSVTVSS
VL: DIQMTQTTSSLSASLGDRVTISCRASQDISNYLNWYQQKPDGTVKLLVYYTSRLHSGVPSRFSGSGSGTDYSLTISNLEQEDIATYFCQQGNTLPWTFGGGTKLEIK
B6: 25-E7-A10-H6 (antibody, V domains shown)
VH: B5 VH with R4L, S31T, A57T, M58I, D100T, K102T
VL: B5 VL with N31K, V48I
B7: 25-G9-G4-C12 (antibody, V domains shown)
VH: EVQLVESGGDLVKPGGSLKLSCAASGFTFSSHGMSWVRQTPDKRLEWVATINSGGYYTYYPDSVKGRFTISRDNAKNTLYLQMSSLKSEDTAMYYCARGQLGNWYFDVWGAGTTVTVSS
VL: DIVMTQSPAIMSASPGEKVTITCSASSSVSYMHWFQQKPGTSPKLWIYSTSNLASGVPARFSGSGSGTSYSLTISRMEAEDAATYYCQQRSSYPLTFGAGTKLELK
B8: 8-B3-F6-H8 (antibody, V domains shown)
VH: EVKVIESGGGLVQPGGSLKLSCAASGFDFSRYWMSWVRQAPGKGLEWIGEINPDSSAINYTPSLKDKFIISRDNAKNTLYLQMSKVRSEDTALYYCATSMTMDYWGQGTSVTVSS
VL: DIVMTQSPSSMYASLGERVTITCKASQDIKSYLSWYQQKPWKSPKTLIYYATSLADGVPSRFSGSGSGQDYSLTISSLESDDTATYYCLQHGESPYTFGGGTKLEK
B9: 48-E11-H7-B5 (antibody, V domains shown)
VH: EVQLVESGGGLVKPGGSLKLSCAASGFTFSSYAMSWVRQTPEKRLEWVASITIGDDTYYPDSVKGRFTISRDHAKNILYLQVSSLRSEDTAMYSCARGVNSYGSSYRYFDVWGAGTTVTVSS
VL: DIVMTQSHKFMSTSVGDRVSITCKASQDVSTAVAWYQQKPGQSPKLLIYWASTRHTGVPDRFTGSGSGTDYTLTISSVQAEDLALYYCQQHYSIPFTFGAGTKLEK
B10: 43-D12-F3-G11 (antibody, V domains shown)
VH: EVQVVESGPGLVAPSQSLSITCTVSGFSLTSYGVSWVRQPPGKGLEWLGVIWADGSTNYHSALLSRLSISKDNSKSQVFLKLNSLQTDDTATYYCAKGHWDGFAYWGQGTLVAVSA
VL: DIVLTQSPAIMSTSPGEKVTLTCSASSSITSSYLYWYQQKPGSSPKLWIYSTSNLASGVPARFSGSGSGTSYYLTISSMEAEDAASYFCHQWSSYPPTFGGGTKLELK
B11: 2-H1-D7-E5-D5 (antibody, V domains shown)
VH: B5 VH with Q3H, R4L, A40P, A57S, M58I, S99G, D100T, K102T
VL: B5 VL with A25T, V48I, R53K, E79D
B12: 2-H8-C9-F7-E2 (antibody, V domains shown)
VH: EVQLQQSGAELVKPGASVKLSCKASGYTFTNYWMHWVKQRPGQGLEWIGEINPSNGRTNYNEKFKSKATLTVDKSSSTAYMQLSSLTSEDSAVYYCARGSLTTVVPFDYWGQGTTLTVSS
VL: DIQMTQTPSSLSASLGGKVTITCKASQDINNYIAWYQHKPGKGPRLLIHYTSTLQPGIPSRFSGSGSGRDYSFSISNLEPEDIATYFCLQYDILLTFGGGTKLEK
B13: 42-C8-A12-F3-D11 (antibody, V domains shown)
VH: B7 VH with Q3H, N52S, Y56I, Y60H, T69S, N77K, A92G, M93I, A97T, L101V
VL: B7 VL with M4I, T22N, K38T, S69F
B14: 26-H9-B9-B7 (antibody, V domains shown)
VH: B5 VH with A57T, M58I
VL: B5 VL with Q3V, T7S, V48I
B15: 27-D11-C2-A10 (antibody, V domains shown)
VH: B5 VH with R4L, S31V, M34V, S56N, A57T, M58I, Y59H, N74I, D100S, K102T
VL: B5 VL with T7S, T20S, T43A, V48I, E79D, I106L
B16: ch27-F11-E10-G10 (antibody, V domains shown)
VH: B5 VH with R4L, A57T, M58I, T69S, Y94F, D100T, K102T
VL: B5 VL with V48I, I106L
B17: ch43-D12-F3-G11 (antibody, V domains shown)
VH: B10 VH
VL: B10 VL
B18: ch36-F4-H1-D9 (antibody, V domains shown)
VH: B4 VH
VL: B4 VL

Target: cynomolgus (Macaca fascicularis) LILRB4 (cynomolgus (Macaca fascicularis))
Experiment: FACS, CHO-S-cynoLILRB4 cells

Row | Binder | binding
1 | B1 | binds
2 | B2 | binds
3 | B3 | no binding
4 | B4 | no binding
5 | B5 | no binding
6 | B6 | no binding
7 | B7 | no binding
8 | B8 | no binding
9 | B9 | no binding
10 | B10 | no binding
11 | B11 | no binding
12 | B12 | no binding
13 | B13 | no binding
14 | B14 | no binding
15 | B15 | no binding
16 | B16 | no binding (tested: up to 66.67 nM)
17 | B17 | no binding (tested: up to 66.67 nM)
18 | B18 | no binding (tested: up to 66.67 nM)

Positions count from the first letter of the chain named. No constants are given. Whether binding was seen depends on the method and setting. Binding can be weak; no strength is given.
